From PMC4458895 come the findings set out here.

Chains of the proteins cited; added tags and fusions are not shown. Residues count along the entry.
UniProt Q2G2B2, residues 420-629: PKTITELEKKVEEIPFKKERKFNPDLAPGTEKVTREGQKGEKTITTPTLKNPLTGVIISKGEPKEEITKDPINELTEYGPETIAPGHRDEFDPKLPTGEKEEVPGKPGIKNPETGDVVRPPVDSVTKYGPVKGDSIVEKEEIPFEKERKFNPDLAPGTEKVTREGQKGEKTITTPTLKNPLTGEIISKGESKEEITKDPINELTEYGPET

No constants are given. Whether binding was seen depends on the method and setting.

For the test, the target named is SasG G5^1-E-G5^2 (G5^1–G5^2; residue range 420–629) (S. aureus strain NCTC 8325-4) (UniProt Q2G2B2). The test can be described thus: SEC-MALS; SEC-multi-angle laser light scattering-quasi-elastic light scattering; samples in the range 1.5-2 mg ml^-1; Superdex 200 10/300 GL column, Dawn HELEOS-II detector; self-association of each construct tested; both purified. A general note: Size exclusion chromatography separates by hydrodynamic size, large species first.

Turning to “SasG G5^1-E-G5^2 (G5^1–G5^2; residue range 420–629) (from UniProt Q2G2B2 420-629) (domain or fragment)”, the binding entry is given as “no binding (tested: 1.5–2 mg ml^−1)”.
